The values below come from paper doi:10.1101/2022.02.21.481271.

No constants are given. Whether binding was seen depends on the method and setting. Some results given as binding are weak or reduced against the parent protein; the word gives no strength. For some assays here: Sequences can lack the tags named with a protein.

For assay [1], the target named is ExoU with an N-terminal histidine tag (P. aeruginosa) (UniProt O34208). The assay is described as follows: native gel or EMSA.
Assay [2] concerns the target T1, ExoU with an N-terminal histidine tag (P. aeruginosa), O34208.
T1 chain: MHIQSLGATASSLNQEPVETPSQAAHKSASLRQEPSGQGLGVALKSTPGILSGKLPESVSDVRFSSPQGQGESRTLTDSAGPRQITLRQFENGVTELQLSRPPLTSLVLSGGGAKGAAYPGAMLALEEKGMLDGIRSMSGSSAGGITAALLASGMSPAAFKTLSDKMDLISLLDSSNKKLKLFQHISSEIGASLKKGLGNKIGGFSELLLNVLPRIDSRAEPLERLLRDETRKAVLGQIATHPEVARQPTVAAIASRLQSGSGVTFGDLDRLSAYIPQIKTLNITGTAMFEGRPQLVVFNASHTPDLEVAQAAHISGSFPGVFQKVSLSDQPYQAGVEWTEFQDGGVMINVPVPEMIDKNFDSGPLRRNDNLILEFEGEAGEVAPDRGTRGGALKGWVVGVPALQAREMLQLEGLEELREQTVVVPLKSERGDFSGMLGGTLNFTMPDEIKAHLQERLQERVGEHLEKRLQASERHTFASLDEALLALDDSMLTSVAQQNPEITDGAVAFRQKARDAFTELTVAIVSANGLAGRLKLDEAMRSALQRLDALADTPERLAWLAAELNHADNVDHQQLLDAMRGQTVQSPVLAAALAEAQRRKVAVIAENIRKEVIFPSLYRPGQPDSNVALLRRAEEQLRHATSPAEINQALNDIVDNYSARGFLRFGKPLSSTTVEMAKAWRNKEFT
In words: native gel or EMSA. Conditions: remark: other sources report otherwise.

For “ExoU with an N-terminal histidine tag (from UniProt O34208 1-687) (enzyme)”, the binding result in assay [1] was “no binding (condition: with compound D)”.

B1: ExoU with an N-terminal histidine tag, O34208 1-687 (enzyme)
chain: T1 chain
Regarding B1, in assay [2], the binding entry is listed as “binds”.
